Test results reported in publication doi:10.1101/2021.05.17.443835.
Results are given in words; binding and its absence hold for the method and conditions named. In cells and extracts the contact can be indirect. A yes stands for co-enrichment or nearness to the bait. Other partners may have been found. One block for each molecule: values may come before it.

Sequences of proteins named here, by UniProt entry; tags and fusion partners are left off.
UniProt P49023: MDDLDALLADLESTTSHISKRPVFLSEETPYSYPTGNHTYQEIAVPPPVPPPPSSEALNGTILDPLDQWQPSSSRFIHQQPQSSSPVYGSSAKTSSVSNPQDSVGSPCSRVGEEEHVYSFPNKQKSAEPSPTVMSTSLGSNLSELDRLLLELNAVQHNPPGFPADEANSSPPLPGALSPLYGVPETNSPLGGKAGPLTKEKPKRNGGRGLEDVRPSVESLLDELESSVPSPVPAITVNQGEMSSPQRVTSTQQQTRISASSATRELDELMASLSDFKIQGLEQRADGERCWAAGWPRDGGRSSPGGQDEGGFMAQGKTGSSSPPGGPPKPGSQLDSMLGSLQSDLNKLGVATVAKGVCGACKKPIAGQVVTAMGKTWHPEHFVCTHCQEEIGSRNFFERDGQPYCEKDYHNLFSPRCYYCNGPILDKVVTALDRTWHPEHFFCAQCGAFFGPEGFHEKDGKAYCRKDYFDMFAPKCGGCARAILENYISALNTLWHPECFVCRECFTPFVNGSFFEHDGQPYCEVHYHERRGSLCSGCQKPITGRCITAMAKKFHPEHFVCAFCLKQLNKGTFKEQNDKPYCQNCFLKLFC
UniProt Q14155: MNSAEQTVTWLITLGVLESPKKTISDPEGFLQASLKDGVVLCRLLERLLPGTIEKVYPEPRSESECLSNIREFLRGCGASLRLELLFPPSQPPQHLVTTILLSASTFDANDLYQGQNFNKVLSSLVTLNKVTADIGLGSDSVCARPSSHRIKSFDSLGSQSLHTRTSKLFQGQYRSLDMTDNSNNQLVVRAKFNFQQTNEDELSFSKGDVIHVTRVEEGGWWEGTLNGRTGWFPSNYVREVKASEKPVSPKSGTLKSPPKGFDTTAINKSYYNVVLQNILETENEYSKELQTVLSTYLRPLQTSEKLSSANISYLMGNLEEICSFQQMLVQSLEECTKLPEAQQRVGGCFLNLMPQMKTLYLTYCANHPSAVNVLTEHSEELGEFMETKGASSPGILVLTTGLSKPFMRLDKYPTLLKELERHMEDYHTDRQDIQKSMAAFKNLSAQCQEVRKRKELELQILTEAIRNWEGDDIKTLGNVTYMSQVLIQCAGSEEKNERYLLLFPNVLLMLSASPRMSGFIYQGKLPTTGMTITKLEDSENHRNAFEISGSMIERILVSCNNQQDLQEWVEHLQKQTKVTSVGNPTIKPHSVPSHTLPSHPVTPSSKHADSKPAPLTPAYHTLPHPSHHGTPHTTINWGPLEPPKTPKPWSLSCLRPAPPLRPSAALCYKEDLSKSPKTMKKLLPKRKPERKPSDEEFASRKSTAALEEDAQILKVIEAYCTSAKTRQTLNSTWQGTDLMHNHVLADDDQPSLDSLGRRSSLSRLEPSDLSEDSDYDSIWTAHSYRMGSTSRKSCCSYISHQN
UniProt Q9Y2X7: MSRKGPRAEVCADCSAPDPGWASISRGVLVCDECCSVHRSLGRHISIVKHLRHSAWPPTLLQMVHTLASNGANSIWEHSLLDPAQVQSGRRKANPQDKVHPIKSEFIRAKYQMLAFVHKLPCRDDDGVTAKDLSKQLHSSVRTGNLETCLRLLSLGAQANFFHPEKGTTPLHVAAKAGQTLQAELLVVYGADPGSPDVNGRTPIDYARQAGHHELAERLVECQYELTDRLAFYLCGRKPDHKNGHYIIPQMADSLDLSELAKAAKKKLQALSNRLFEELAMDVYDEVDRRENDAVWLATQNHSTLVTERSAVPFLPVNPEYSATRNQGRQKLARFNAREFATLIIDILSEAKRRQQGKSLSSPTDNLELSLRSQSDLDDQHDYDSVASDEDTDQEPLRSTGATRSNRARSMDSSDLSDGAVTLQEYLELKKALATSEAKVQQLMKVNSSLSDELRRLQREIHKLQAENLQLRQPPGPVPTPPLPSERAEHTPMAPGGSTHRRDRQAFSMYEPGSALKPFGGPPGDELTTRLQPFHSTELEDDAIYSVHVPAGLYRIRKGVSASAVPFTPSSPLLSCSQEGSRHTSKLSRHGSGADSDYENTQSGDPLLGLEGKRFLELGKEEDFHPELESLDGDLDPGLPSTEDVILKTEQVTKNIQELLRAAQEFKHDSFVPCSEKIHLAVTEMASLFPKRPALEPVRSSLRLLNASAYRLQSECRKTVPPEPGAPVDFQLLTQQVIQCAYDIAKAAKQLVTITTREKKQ
UniProt Q14160: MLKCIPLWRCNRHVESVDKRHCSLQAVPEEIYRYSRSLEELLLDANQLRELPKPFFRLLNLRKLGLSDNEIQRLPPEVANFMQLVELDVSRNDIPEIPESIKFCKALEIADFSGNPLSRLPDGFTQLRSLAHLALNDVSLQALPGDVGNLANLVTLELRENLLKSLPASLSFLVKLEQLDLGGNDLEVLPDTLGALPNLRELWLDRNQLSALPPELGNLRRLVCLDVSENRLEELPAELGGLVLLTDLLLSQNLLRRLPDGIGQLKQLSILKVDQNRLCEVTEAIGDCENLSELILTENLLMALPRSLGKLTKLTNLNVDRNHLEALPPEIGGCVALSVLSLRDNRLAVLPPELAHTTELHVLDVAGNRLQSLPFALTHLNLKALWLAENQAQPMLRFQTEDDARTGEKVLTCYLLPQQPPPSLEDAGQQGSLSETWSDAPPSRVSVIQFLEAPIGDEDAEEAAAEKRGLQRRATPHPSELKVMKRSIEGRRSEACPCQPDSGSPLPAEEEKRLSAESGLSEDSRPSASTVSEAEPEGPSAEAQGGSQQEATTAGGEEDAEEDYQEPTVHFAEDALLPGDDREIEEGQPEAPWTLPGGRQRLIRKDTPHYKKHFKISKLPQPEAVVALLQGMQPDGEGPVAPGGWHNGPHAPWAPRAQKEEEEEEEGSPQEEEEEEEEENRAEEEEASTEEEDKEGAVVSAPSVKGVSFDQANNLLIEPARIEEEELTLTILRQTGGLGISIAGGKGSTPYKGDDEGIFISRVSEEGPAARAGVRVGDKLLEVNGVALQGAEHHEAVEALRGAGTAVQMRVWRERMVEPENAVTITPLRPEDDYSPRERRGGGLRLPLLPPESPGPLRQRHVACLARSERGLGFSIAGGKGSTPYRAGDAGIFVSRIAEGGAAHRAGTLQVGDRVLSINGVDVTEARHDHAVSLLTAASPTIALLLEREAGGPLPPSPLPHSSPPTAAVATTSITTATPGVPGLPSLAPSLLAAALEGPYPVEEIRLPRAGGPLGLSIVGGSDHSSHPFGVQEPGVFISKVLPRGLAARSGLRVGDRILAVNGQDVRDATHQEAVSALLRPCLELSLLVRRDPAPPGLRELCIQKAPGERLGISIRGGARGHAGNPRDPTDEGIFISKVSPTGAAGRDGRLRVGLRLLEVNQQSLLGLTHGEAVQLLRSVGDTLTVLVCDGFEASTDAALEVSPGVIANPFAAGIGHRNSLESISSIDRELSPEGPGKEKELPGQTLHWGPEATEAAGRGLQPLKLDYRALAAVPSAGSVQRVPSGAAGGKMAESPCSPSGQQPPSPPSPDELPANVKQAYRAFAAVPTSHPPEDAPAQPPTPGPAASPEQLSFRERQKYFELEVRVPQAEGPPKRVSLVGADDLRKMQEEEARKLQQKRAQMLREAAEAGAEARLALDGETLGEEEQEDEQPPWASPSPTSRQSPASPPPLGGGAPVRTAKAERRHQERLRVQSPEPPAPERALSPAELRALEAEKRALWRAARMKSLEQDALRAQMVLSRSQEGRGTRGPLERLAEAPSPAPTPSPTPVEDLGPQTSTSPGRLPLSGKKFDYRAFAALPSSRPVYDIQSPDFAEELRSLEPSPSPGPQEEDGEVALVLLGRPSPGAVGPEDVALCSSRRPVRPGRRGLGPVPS

How the values were obtained:
myc-BioID2-Paxillin = myc-BioID2-Paxillin (UniProt P49023); assay: proximity labelling
BioID-βPix = BioID-βPix (UniProt Q14155); assay: proximity labelling

Molecule: GIT1 (from UniProt Q9Y2X7 1-761)
binding (myc-BioID2-Paxillin): binds

Molecule: SCRIB (from UniProt Q14160 1-1655)
binding (BioID-βPix): binds

More lines, now with the values ahead:

binding (myc-BioID2-Paxillin): binds
Molecule: ARHGEF7 (also known as βPix) (from UniProt Q14155 1-803)

binding (myc-BioID2-Paxillin): binds
B1: GIT2 (protein, UniProt Q14161 1-759)
chain: MSKRLRSSEVCADCSGPDPSWASVNRGTFLCDECCSVHRSLGRHISQVRHLKHTPWPPTLLQMVETLYNNGANSIWEHSLLDPASIMSGRRKANPQDKVHPNKAEFIRAKYQMLAFVHRLPCRDDDSVTAKDLSKQLHSSVRTGNLETCLRLLSLGAQANFFHPEKGNTPLHVASKAGQILQAELLAVYGADPGTQDSSGKTPVDYARQGGHHELAERLVEIQYELTDRLAFYLCGRKPDHKNGQHFIIPQMADSSLDLSELAKAAKKKLQSLSNHLFEELAMDVYDEVDRRETDAVWLATQNHSALVTETTVVPFLPVNPEYSSTRNQGRQKLARFNAHEFATLVIDILSDAKRRQQGSSLSGSKDNVELILKTINNQHSVESQDNDQPDYDSVASDEDTDLETTASKTNRQKSLDSDLSDGPVTVQEFMEVKNALVASEAKIQQLMKVNNNLSDELRIMQKKLQTLQSENSNLRKQATTNVYQVQTGSEYTDTSNHSSLKRRPSARGSRPMSMYETGSGQKPYLPMGEASRPEESRMRLQPFPAHIGRSALVTSSSSLPSFPSTLSWSRDESARRASRLEKQNSTPESDYDNTPNDMEPDGMGSSRKGRQRSMVWPGDGLVPDTAEPHVAPSPTLPSTEDVIRKTEQITKNIQELLRAAQENKHDSYIPCSERIHVAVTEMAALFPKKPKSDMVRTSLRLLTSSAYRLQSECKKTLPGDPGSPTDVQLVTQQVIQCAYDIAKAAKQLVTITTKENNN
